According to PMC8987157, “Regioselective One-Pot Synthesis of Hydroxy-(S)-Equols Using Isoflavonoid Reductases and Monooxygenases and Evaluation of the Hydroxyequol Derivatives as Selective Estrogen Receptor Modulators and Antioxidants” (Frontiers in Bioengineering and Biotechnology, 2022):
No constants are given. Whether binding was seen depends on the method and setting. Some binding calls cover weakened binding; strength is not graded here.

By UniProt entry, the sequences of proteins in these tests, tags left out. Where a name states a change or a piece, a line headed by the entry shows the natural chain unless it says otherwise. Residues count along the entry.
UniProt Q92731, residues 264-510: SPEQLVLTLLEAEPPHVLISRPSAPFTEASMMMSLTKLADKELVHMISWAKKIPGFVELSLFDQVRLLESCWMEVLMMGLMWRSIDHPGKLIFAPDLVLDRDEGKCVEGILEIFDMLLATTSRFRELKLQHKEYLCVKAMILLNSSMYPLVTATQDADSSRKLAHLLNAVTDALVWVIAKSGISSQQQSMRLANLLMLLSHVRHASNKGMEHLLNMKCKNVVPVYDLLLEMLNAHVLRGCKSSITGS
UniProt Q15788, residues 613-773: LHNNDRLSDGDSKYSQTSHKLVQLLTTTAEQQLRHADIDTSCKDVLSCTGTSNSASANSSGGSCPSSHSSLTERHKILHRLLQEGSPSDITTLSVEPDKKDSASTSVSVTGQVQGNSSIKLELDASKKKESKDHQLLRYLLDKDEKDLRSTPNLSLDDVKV

What was measured:
[1] = target: LexA DBD-ERβ LBD (264–510) (UniProt Q92731); assay: two-hybrid; LexA DBD-ER LBD bait and VP16 AD-tSRC1 prey in S. cerevisiae L40; β-galactosidase (ONPG, Miller units) after overnight (~20 h) culture at 30 °C with 17β-estradiol, genistein, (S)-equol, 3′HE or 6HE; normalised to 10 nM E2
[2] = target: LexA DBD-ERβ LBD (264–510) (UniProt Q92731); assay: condition: only with 5HE (10^–8∼10^–3 M) as the added ligand; two-hybrid; the same two-hybrid system with 5-hydroxy-(S)-equol (5HE, 10^–8∼10^–3 M) as the added compound

With “VP16 activator domain (AD)-(Gly4Ser)2 linker-truncated steroid receptor coactivator 1 (tSRC1) (613–773) (from UniProt Q15788 613-773) (domain or fragment)” as the substance, how does the binding [1] read?
Its binding is “binds”.

What about the binding [2] of the same substance?
Its binding is “no binding”.
